Laboratory results: the supplement of paper PMC4604168 (melanoma cell lines)
The list shows a part of the results. Single values are uncertain, as repeats are few or missing.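 The apoptosis fraction was the count of cleaved-PARP antibody-stained nuclei relative to all DNA-stained nuclei, imaged in 1,536-well plates. Screening doses were set so most cells survived, and baseline and induced cleaved-PARP levels vary greatly across cell lines.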

How the values were obtained:
Assay in all cases: cleaved PARP positive nuclei fraction relative to DMSO control; melanoma cells; higher = more apoptosis
Settings in all cases: library dose: low library concentration; 72 h
501Mel = system: 501Mel
A101D = system: A101D
A2058 = system: A2058
A375 = system: A375
C32 = system: C32
CBRC008 = system: CBRC008 (line from a melanoma biopsy)
CBRC013 = system: CBRC013 (line from a melanoma biopsy)
CBRC014 = system: CBRC014 (line from a melanoma biopsy)
CBRC016 = system: CBRC016 (line from a melanoma biopsy)
CBRC017 = system: CBRC017 (line from a melanoma biopsy)

| SMILES | cleaved PARP positive nuclei fraction (501Mel) [%] | cleaved PARP positive nuclei fraction (A101D) [%] | cleaved PARP positive nuclei fraction (A2058) [%] | cleaved PARP positive nuclei fraction (A375) [%] | cleaved PARP positive nuclei fraction (C32) [%] | cleaved PARP positive nuclei fraction (CBRC008) [%] | cleaved PARP positive nuclei fraction (CBRC013) [%] | cleaved PARP positive nuclei fraction (CBRC014) [%] | cleaved PARP positive nuclei fraction (CBRC016) [%] | cleaved PARP positive nuclei fraction (CBRC017) [%] |
| --- | --- | --- | --- | --- | --- | --- | --- | --- | --- | --- |
| C[C@]12O[C@H](C[C@]1(O)CO)n1c3ccccc3c3c4c(c5c6ccccc6n2c5c31)CNC4=O [Lestaurtinib] + CC1(C)NC(=O)N(c2ccc([N+](=O)[O-])c(C(F)(F)F)c2)C1=O [nilutamide] (first compound 0.004 µM, partner dose 1 µM) | 86.8 | 174 | 87 | 76.8 | 24.7 | 140 | 81 | 78.6 | 32 | 70 |
| Cn1cc(C2=C(c3cn(C4CCN(Cc5ccccn5)CC4)c4ccccc34)C(=O)NC2=O)c2ccccc21 [Enzastaurin] + CC1(C)NC(=O)N(c2ccc([N+](=O)[O-])c(C(F)(F)F)c2)C1=O [nilutamide] (first compound 0.8 µM, partner dose 1 µM) | 85.4 | 85.3 | 95.5 | 32.5 | 92 | 155 | 73.6 | 76.9 | 127 | 83.6 |
| C[C@]12O[C@H](C[C@]1(O)CO)n1c3ccccc3c3c4c(c5c6ccccc6n2c5c31)CNC4=O [Lestaurtinib] + NC(=O)Nc1cc(-c2cccc(F)c2)sc1C(=O)N[C@H]1CCCNC1 [AZD7762] (first compound 0.004 µM, partner dose 0.02 µM) | 179 | 97.2 | 115 | 466 | 76.8 | 202 | 71.1 | 53.6 | 123 | 105 |
| C[As](C)SC[C@H](NC(=O)CC[C@H](N)C(=O)O)C(=O)NCC(=O)O [Darinaparsin] + Cc1cc(N2CCOCC2)cc2[nH]c(-c3c(NC[C@@H](O)c4cccc(Cl)c4)cc[nH]c3=O)nc12 [BMS536924] (first compound 0.4 µM, partner dose 0.2 µM) | 132 | 78.5 | 107 | 278 | 75.7 | 230 | 114 | 86.5 | 57.5 | 116 |
| Cn1sc(=O)n(Cc2ccccc2)c1=O + N.N.[Cl][Pt][Cl] [cisplatin] (first compound 0.4 µM, partner dose 1.6 µM) | 118 | 60.3 | 140 | 101 | 77.9 | 123 |  | 108 | 156 | 111 |
| C[As](C)SC[C@H](NC(=O)CC[C@H](N)C(=O)O)C(=O)NCC(=O)O [Darinaparsin] + O=C(Nc1cccc(Cl)c1)Nc1ncc(CCNc2ncnc3ccsc23)s1 [SNS314] (first compound 0.4 µM, partner dose 0.0008 µM) | 92.3 | 76.8 | 97.9 | 46.2 | 251 | 53.3 | 94 | 86.3 | 104 | 195 |
| Cn1cc(C2=C(c3cn(C4CCN(Cc5ccccn5)CC4)c4ccccc34)C(=O)NC2=O)c2ccccc21 [Enzastaurin] + O=C(O)c1ccc(-c2c[nH]c3ncc(-c4ccccc4)cc23)cc1C1CCCC1 [GSK650394] (first compound 0.8 µM, partner dose 0.16 µM) | 88 | 96.1 | 46.5 | 55.7 | 77.1 | 78.9 | 70.9 | 337 | 108 | 129 |
| N.N.[Cl][Pt][Cl] [cisplatin] + Cn1cncc1[C@@](N)(c1ccc(Cl)cc1)c1ccc2c(c1)c(-c1cccc(Cl)c1)cc(=O)n2C [tipifarnib] (first compound 1.6 µM, partner dose 0.01 µM) | 78.5 | 288 | 68 | 56.4 | 159 | 110 | 107 | 128 | 68.8 | 123 |
| N.N.[Cl][Pt][Cl] [cisplatin] + O=C(Nc1cccc(Cl)c1)Nc1ncc(CCNc2ncnc3ccsc23)s1 [SNS314] (first compound 1.6 µM, partner dose 0.0008 µM) | 48.3 | 78.5 | 72.6 | 193 | 178 | 219 | 88.3 | 89.5 | 63.1 | 112 |
| C[C@]12O[C@H](C[C@]1(O)CO)n1c3ccccc3c3c4c(c5c6ccccc6n2c5c31)CNC4=O [Lestaurtinib] + COc1cc2c(Oc3ccc4[nH]c(C)cc4c3F)ncnc2cc1OCCCN1CCCC1 [cediranib] (first compound 0.004 µM, partner dose 0.4 µM) | 170 | 73.2 | 65.8 | 59.6 | 85.5 | 32 | 126 | 46.9 | 132 | 144 |
| C[C@]12O[C@H](C[C@]1(O)CO)n1c3ccccc3c3c4c(c5c6ccccc6n2c5c31)CNC4=O [Lestaurtinib] + COc1cc(Nc2ncc(F)c(Nc3ccc4c(n3)NC(=O)C(C)(C)O4)n2)cc(OC)c1OC [Tamatinib] (first compound 0.004 µM, partner dose 0.4 µM) | 165 | 86.3 | 107 | 110 | 72.1 | 238 | 113 | 75.8 | 145 | 91.5 |
| Cn1cc(C2=C(c3cn(C4CCN(Cc5ccccn5)CC4)c4ccccc34)C(=O)NC2=O)c2ccccc21 [Enzastaurin] + Nc1ncn([C@H]2C[C@H](O)[C@@H](CO)O2)c(=O)n1 [decitabine] (first compound 0.8 µM, partner dose 0.1 µM) | 64.6 | 142 | 154 | 180 | 65.2 | 118 |  | 92.6 | 147 | 105 |
| C[C@@H](Oc1cc(-c2cnn(C3CCNCC3)c2)cnc1N)c1c(Cl)ccc(F)c1Cl [Crizotinib] + C[As](C)SC[C@H](NC(=O)CC[C@H](N)C(=O)O)C(=O)NCC(=O)O [Darinaparsin] (first compound 0.2 µM, partner dose 0.4 µM) | 135 | 90.9 | 108 | 185 | 83.2 | 123 |  | 104 | 110 | 118 |
| C[As](C)SC[C@H](NC(=O)CC[C@H](N)C(=O)O)C(=O)NCC(=O)O [Darinaparsin] + COCC[n+]1c2c(n(Cc3cnccn3)c1C)C(=O)c1ccccc1C2=O [YM155] (first compound 0.4 µM, partner dose 0.0004 µM) | 70.8 | 51.6 | 92 | 210 | 79.1 | 299 |  | 98.6 | 33.6 | 78.9 |
| CCN(CC)CCNC(=O)c1c(C)[nH]c(/C=C2\C(=O)Nc3ccc(F)cc32)c1C [sunitinib] + N.N.[Cl][Pt][Cl] [cisplatin] (first compound 0.4 µM, partner dose 1.6 µM) | 132 | 173 | 108 | 206 | 77.6 | 60.5 |  | 110 | 75.8 | 113 |
| C[C@]12O[C@H](C[C@]1(O)CO)n1c3ccccc3c3c4c(c5c6ccccc6n2c5c31)CNC4=O [Lestaurtinib] + OCc1c[nH]c2ccccc12 [Indole-3-carbinol] (first compound 0.004 µM, partner dose 0.8 µM) | 129 | 88 | 195 | 79.6 | 74.5 | 31.4 |  | 86.8 | 128 | 88.6 |
| Cn1sc(=O)n(Cc2ccccc2)c1=O + C[As](C)SC[C@H](NC(=O)CC[C@H](N)C(=O)O)C(=O)NCC(=O)O [Darinaparsin] (first compound 0.4 µM, partner dose 0.4 µM) | 62.8 | 184 | 110 | 102 | 75.6 | 115 |  | 104 | 128 | 90.4 |
| CCCCCCCCCCCCCCCCCCOP(=O)([O-])OC1CC[N+](C)(C)CC1 [Perifosine] + N.N.[Cl][Pt][Cl] [cisplatin] (first compound 0.4 µM, partner dose 1.6 µM) | 133 | 193 | 203 | 121 | 82.6 | 49.2 |  | 101 | 128 | 116 |
| O=C(Nc1cc(C(F)(F)F)cc(C(F)(F)F)c1)c1cc(Cl)ccc1O + C[C@]12O[C@H](C[C@]1(O)CO)n1c3ccccc3c3c4c(c5c6ccccc6n2c5c31)CNC4=O [Lestaurtinib] (first compound 0.016 µM, partner dose 0.004 µM) | 71.7 | 96 | 112 | 126 | 82.7 | 158 |  | 89.7 | 135 | 71 |
| Cn1cc(C2=C(c3cn(C4CCN(Cc5ccccn5)CC4)c4ccccc34)C(=O)NC2=O)c2ccccc21 [Enzastaurin] + C=C(c1ccc(C(=O)O)cc1)c1cc2c(cc1C)C(C)(C)CCC2(C)C [Bexarotene] (first compound 0.8 µM, partner dose 2 µM) | 146 | 129 | 81.9 | 209 | 79.2 | 122 |  | 83.1 | 130 | 188 |
| Cn1cc(C2=C(c3cn(C4CCN(Cc5ccccn5)CC4)c4ccccc34)C(=O)NC2=O)c2ccccc21 [Enzastaurin] + Cn1nnc2c(C(N)=O)ncn2c1=O [temozolomide] (first compound 0.8 µM, partner dose 2 µM) | 46.5 | 51.9 | 44.5 | 101 | 264 | 359 |  | 101 | 119 | 221 |

Copied from the list:
Under cleaved PARP positive nuclei fraction (CBRC014) [%], Cn1cc(C2=C(c3cn(C4CCN(Cc5ccccn5)CC4)c4ccccc34)C(=O)NC2=O)c2ccccc21 [Enzastaurin] + C=C(c1ccc(C(=O)O)cc1)c1cc2c(cc1C)C(C)(C)CCC2(C)C [Bexarotene] (first compound 0.8 µM, partner dose 2 µM) has the entry 83.1
Under cleaved PARP positive nuclei fraction (CBRC008) [%], C[C@]12O[C@H](C[C@]1(O)CO)n1c3ccccc3c3c4c(c5c6ccccc6n2c5c31)CNC4=O [Lestaurtinib] + COc1cc2c(Oc3ccc4[nH]c(C)cc4c3F)ncnc2cc1OCCCN1CCCC1 [cediranib] (first compound 0.004 µM, partner dose 0.4 µM) has the entry 32
